PubChem BioAssay AID504774 | Drosophila RNAi Screening Center – 2011
In all, the deposit lists about 23,000 reagents; below is an unselected part of those with a known target gene and a result. 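Values are quantile-normalised luminescence on an arbitrary scale; higher means more cells surviving MMS.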 A plus sign joins genes that one reagent is predicted to hit.

- Assay: 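Knock-downs that shift viability of MMS-exposed cells relative to untreated ones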 (primary screen)
- Cell system: Drosophila Kc167 cells
- Knock-down reagent: long dsRNA against Drosophila genes, about 0.25 µg dsRNA per well
- Duration: about 6 days: 3 days knock-down, then 3 days with or without MMS
- Challenge: methyl methanesulphonate 0.004% (w/v) for 3 days after knock-down
- Measured: 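Viability in wells given MMS, read as ATP luminescence, normalised by quantiles plate by plate and averaged across replicates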
- Direction: mean viability with MMS and viability with MMS: higher = more surviving cells after MMS

| target gene | DRSC id | mean viability with MMS | viability with MMS, replicate 1 | viability with MMS, replicate 2 |
| --- | --- | --- | --- | --- |
| ck | DRSC03509 | 3.50e6 | 4.09e6 | 3.83e6 |
| Arp1 | DRSC14118 | 3.45e6 | 3.97e6 | 3.89e6 |
| Nelf-E | DRSC10567 | 3.57e6 | 4.00e6 | 4.10e6 |
| CG31404 | DRSC15497 | 3.55e6 | 3.88e6 | 4.16e6 |
| Ncc69 | DRSC10412 | 3.65e6 | 3.98e6 | 4.31e6 |
| Ncc69 | DRSC10413 | 3.36e6 | 3.77e6 | 3.79e6 |
| CG34230 | DRSC05317 | 3.56e6 | 4.05e6 | 3.99e6 |
| Hibch | DRSC15705 | 3.35e6 | 3.76e6 | 3.79e6 |
| B4 | DRSC01868 | 3.44e6 | 3.77e6 | 3.97e6 |
| B4 | DRSC03175 | 3.69e6 | 4.09e6 | 4.21e6 |
| CG30385 | DRSC06031 | 3.67e6 | 4.14e6 | 4.08e6 |
| CG13054 | DRSC09935 | 3.74e6 | 4.24e6 | 4.16e6 |
| CG12567 | DRSC20845 | 3.60e6 | 4.01e6 | 4.12e6 |
| CG12948 | DRSC14576 | 3.68e6 | 4.11e6 | 4.12e6 |
| Grik | DRSC15846 | 3.56e6 | 4.05e6 | 4.03e6 |
| Grik | DRSC15847 | 3.39e6 | 3.81e6 | 3.92e6 |
| Prosalpha3 | DRSC04644 | 3.27e6 | 3.75e6 | 3.69e6 |
| HSPC300 | DRSC22880 | 3.43e6 | 3.89e6 | 3.97e6 |
| His-Psi:CR31616 + His-Psi:CR31615 | DRSC03760 | 3.01e6 | 3.75e6 | 3.66e6 |
| CG3984 | DRSC15530 | 3.59e6 | 3.97e6 | 4.20e6 |
| CG40583 (retired record) | DRSC20938 | 2.30e6 | 3.94e6 | 3.93e6 |
| mtgo | DRSC02245 | 3.16e6 | 3.61e6 | 3.61e6 |
| mtgo | DRSC02246 | 3.32e6 | 3.79e6 | 3.74e6 |
| mtgo | DRSC02769 | 3.57e6 | 3.95e6 | 4.16e6 |
| mtgo | DRSC21392 | 3.44e6 | 4.13e6 | 3.74e6 |
| mtgo | DRSC21743 | 3.43e6 | 3.90e6 | 3.93e6 |
| eIF4E7 | DRSC17782 | 3.67e6 | 4.05e6 | 4.25e6 |
| eIF4E7 | DRSC18623 | 3.43e6 | 3.89e6 | 3.90e6 |
| Prosbeta4 | DRSC02603 | 3.37e6 | 3.79e6 | 3.81e6 |
| Kdm4B | DRSC06862 | 3.20e6 | 3.73e6 | 3.66e6 |
| kairos | DRSC19972 | 3.78e6 | 4.29e6 | 4.31e6 |
| kairos | DRSC23286 | 3.84e6 | 4.26e6 | 4.42e6 |
| CG12446 | DRSC20618 | 3.55e6 | 4.11e6 | 3.94e6 |
| ND-B14 | DRSC07029 | 3.41e6 | 3.92e6 | 3.83e6 |
| Dtg | DRSC15998 | 3.67e6 | 4.14e6 | 4.20e6 |
| t-Grip91 | DRSC01506 | 3.59e6 | 4.05e6 | 4.06e6 |
| CG11755 | DRSC14374 | 3.51e6 | 3.91e6 | 4.08e6 |
| Clp | DRSC00746 | 3.43e6 | 3.89e6 | 3.85e6 |
| CG6592 | DRSC10669 | 3.58e6 | 4.05e6 | 4.09e6 |
| shams | DRSC16590 | 3.53e6 | 3.94e6 | 4.06e6 |
| Cpr51A | DRSC05969 | 3.50e6 | 3.95e6 | 4.04e6 |

Next part (9 carried over from the part before).
| target gene | DRSC id | mean viability with MMS | viability with MMS, replicate 1 | viability with MMS, replicate 2 |
| --- | --- | --- | --- | --- |
| CG12446 | DRSC20618 | 3.55e6 | 4.11e6 | 3.94e6 |
| ND-B14 | DRSC07029 | 3.41e6 | 3.92e6 | 3.83e6 |
| Dtg | DRSC15998 | 3.67e6 | 4.14e6 | 4.20e6 |
| t-Grip91 | DRSC01506 | 3.59e6 | 4.05e6 | 4.06e6 |
| CG11755 | DRSC14374 | 3.51e6 | 3.91e6 | 4.08e6 |
| Clp | DRSC00746 | 3.43e6 | 3.89e6 | 3.85e6 |
| CG6592 | DRSC10669 | 3.58e6 | 4.05e6 | 4.09e6 |
| shams | DRSC16590 | 3.53e6 | 3.94e6 | 4.06e6 |
| Cpr51A | DRSC05969 | 3.50e6 | 3.95e6 | 4.04e6 |
| tinc | DRSC14798 | 3.71e6 | 4.23e6 | 4.18e6 |
| tinc | DRSC14799 | 3.65e6 | 4.25e6 | 4.03e6 |
| tinc | DRSC16308 | 3.38e6 | 3.85e6 | 3.84e6 |
| tinc | DRSC16309 | 3.51e6 | 3.98e6 | 3.98e6 |
| Pi3K92E | DRSC16788 | 3.71e6 | 4.16e6 | 4.20e6 |
| Nup98-96 | DRSC14209 | 3.12e6 | 3.65e6 | 3.66e6 |
| Nup98-96 | DRSC14210 | 3.31e6 | 3.68e6 | 3.74e6 |
| CG14743 | DRSC06479 | 3.49e6 | 3.91e6 | 4.02e6 |
| CG7460 | DRSC10850 | 3.55e6 | 4.04e6 | 4.00e6 |
| Pbp95 | DRSC15448 | 3.47e6 | 4.03e6 | 3.88e6 |
| CG7408 | DRSC10841 | 3.59e6 | 4.09e6 | 4.04e6 |
| Atg8b | DRSC14501 | 3.50e6 | 4.03e6 | 3.91e6 |
| E5 | DRSC13000 | 3.26e6 | 3.74e6 | 3.75e6 |
| E5 | DRSC16585 | 2.59e6 | 3.46e6 | 3.48e6 |
| E5 | DRSC23157 | 3.40e6 | 3.81e6 | 3.92e6 |
| Ir87a | DRSC14836 | 3.79e6 | 4.24e6 | 4.34e6 |
| rhea | DRSC11300 | 3.54e6 | 3.94e6 | 4.10e6 |
| CG12075 | DRSC17801 | 3.56e6 | 3.86e6 | 4.03e6 |
| Edg84A | DRSC12594 | 3.61e6 | 4.11e6 | 4.07e6 |
| CG9240 | DRSC20177 | 3.59e6 | 4.04e6 | 4.09e6 |
| Cpr97Eb | DRSC15123 | 3.64e6 | 4.15e6 | 4.10e6 |
| Muc4B | DRSC18062 | 3.51e6 | 3.98e6 | 3.99e6 |
| Muc4B | DRSC18063 | 3.74e6 | 4.41e6 | 4.08e6 |
| CG9663 | DRSC00724 | 3.64e6 | 4.12e6 | 4.16e6 |
| CG10584 | DRSC11624 | 3.61e6 | 3.99e6 | 4.19e6 |
| CG32436 | DRSC11683 | 3.52e6 | 3.96e6 | 4.00e6 |
| CG32436 | DRSC11796 | 3.60e6 | 4.14e6 | 4.01e6 |
| ed | DRSC00350 | 3.62e6 | 4.04e6 | 4.19e6 |
| ed | DRSC00438 | 3.46e6 | 3.88e6 | 3.97e6 |
| ed | DRSC00439 | 3.47e6 | 3.82e6 | 4.05e6 |
| ed | DRSC00478 | 3.50e6 | 3.91e6 | 4.04e6 |
| AttA | DRSC05926 | 3.44e6 | 3.80e6 | 3.97e6 |
| Nct | DRSC16172 | 3.37e6 | 3.75e6 | 3.90e6 |
| CR33318 | DRSC22949 | 3.64e6 | 4.06e6 | 4.13e6 |
| vsg | DRSC10219 | 3.49e6 | 3.88e6 | 4.02e6 |
| CG33296 | DRSC00998 | 3.43e6 | 3.90e6 | 3.87e6 |
| CG10748 | DRSC09797 | 3.62e6 | 4.12e6 | 4.04e6 |
| Cpr64Aa | DRSC08460 | 3.39e6 | 3.87e6 | 3.82e6 |
| wcd | DRSC07051 | 3.52e6 | 3.99e6 | 4.00e6 |
| sgll | DRSC15442 | 3.56e6 | 4.05e6 | 4.04e6 |
| cactin | DRSC20576 | 3.39e6 | 3.86e6 | 3.82e6 |
| TfIIB | DRSC03454 | 2.83e6 | 3.46e6 | 3.46e6 |
| Dolk | DRSC07143 | 3.57e6 | 4.11e6 | 3.98e6 |
| LUBEL | DRSC02141 | 3.36e6 | 3.64e6 | 3.91e6 |
| CG17304 (retired record) | DRSC15222 | 3.14e6 | 3.61e6 | 3.57e6 |
| CG17304 (retired record) | DRSC23250 | 3.09e6 | 3.20e6 | 3.67e6 |
